The values that follow come from publication PMC12898745, “VOCs Profiling and Quality Assessment of Milk Employing Odorant-Binding Proteins-Based Fluorescence Biosensor” (International Journal of Molecular Sciences, 2026).

A short description of data set [1]: Impinger VOC capture into water, quantified by competitive FRET with pOBP. As to conditions: 100 mL Milli-Q water, two hours, nitrogen flow.
Data set [2] can be described thus: HS-SPME/GC-MS binding assay, PBS only (control). As to conditions: control without protein; 10 µM volatile, overnight, room temperature.

With `CCCCCO` [1-pentanol], in data set [1], the “estimated concentration in the aqueous solution after bubbling” value is 2 mM. Besides, in data set [2], the “%RPA, PBS 1X” value came to 229.2 ± 7.0 %RPA. In the case of `CCC(C)=O` [2-butanone], the “%RPA, PBS 1X” value in data set [2] amounted to 269.8 ± 1.6 %RPA.

On to `C=CC(O)CCCCC` (centres unmarked) [1-octen-3-ol], for which, in data set [1], the “estimated concentration in the aqueous solution after bubbling” value is reported as 1 mM. For the same molecule, the “%RPA, PBS 1X” value in data set [2] is on record as 228.4 ± 14.0 %RPA.
